{"source": "PubChem BioAssay AID662", "about": "(National Center for Advancing Translational Sciences (NCATS), 2007)", "note": "The other results are listed elsewhere or left out. Shown are side measurements of this screen, not its main read-out; they come without a call. The list favours compounds with an active or inconclusive main result. The note in brackets gives the kind of curve behind each potency; many fits are weak.", "data": [{"assay": "Cell signaling CRE-BLA (Fsk stim)", "details": "CHO CRE-bla reporter (cAMP response element driving beta-lactamase), forskolin EC10, beta-lactamase ratio; measured here: 460 nm blue channel", "method_in_brief": "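Using CellSensor CRE-bla CHO cells in Opti-MEM with 0.5% dialyzed FBS, compounds were titrated with EC10 NKH 477 for 3 h at 37 °C. CCF4 ratio (460/530 nm) gave %Activity; AC50 derived.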", "values": [{"smiles": "O=C(CN1C(=O)COc2ccccc21)NCCCN1CCN(Cc2ccccc2)CC1", "AC50": "0.0794 µM [falling, full curve]"}, {"smiles": "CCN(CCCn1c(SCC#N)nc2ccccc2c1=O)c1ccccc1", "AC50": "2.51 µM [rising, full curve]"}, {"smiles": "O=C(CSc1nc(-c2ccccc2)cc(=O)[nH]1)Nc1ccccn1", "AC50": "15.8 µM [rising, partial curve]"}, {"smiles": "COc1cc(C2C(C(=O)c3cccs3)=C(O)C(=O)N2Cc2ccco2)cc(OC)c1OC", "note": "(stereo unspecified)", "AC50": "0.00398 µM [falling, full curve]"}, {"smiles": "O=C(c1ccc(CS(=O)(=O)c2c(Cl)cccc2Cl)o1)N1CCN(c2ccccn2)CC1", "AC50": "12.6 µM [rising, partial curve]"}, {"smiles": "O=c1[nH]c(CSc2nnc(-c3ccco3)n2-c2ccccc2)nc2sc3c(c12)CCC3", "AC50": "10 µM [rising, partial curve]"}, {"smiles": "CCn1c(=O)n(CC)c2cc(S(=O)(=O)Nc3ccccc3C)c(C)cc21", "AC50": "10 µM [rising, single point]"}, {"smiles": "Cn1c2ccccc2c2c(C(=O)NCC3CCCO3)cn(C3CCCC3)c(=O)c21", "note": "(stereo unspecified)", "AC50": "10 µM [rising, partial curve]"}, {"smiles": "CCOC(=O)N1CCC(NC(=O)Cn2c3ccccc3c3cn[nH]c(=O)c32)CC1", "AC50": "0.316 µM [falling, partial curve, poor fit]"}, {"smiles": "COc1ccc(C2/C(=C(/O)c3ccccc3)C(=O)C(=O)N2CC(C)O)c(OC)c1", "note": "(stereo unspecified)", "AC50": "7.94 µM [falling, partial curve]"}, {"smiles": "Cc1cc(Nc2ccc(Br)c(C)c2)n2nc(C)nc2n1", "AC50": "7.94 µM [rising, partial curve]"}, {"smiles": "CCc1ccc(NC(=O)N(CCCOC(C)C)C2CCN(C(C)=O)CC2)cc1", "AC50": "5.01 µM [falling, partial curve, poor fit]"}, {"smiles": "CNc1nc2c(c(=O)[nH]c(=O)n2C)n1CCOC", "AC50": "3.16 µM [falling, partial curve]"}, {"smiles": "Cc1cnc(CNc2ncnc3ccc(-c4ccccc4C)cc23)cn1", "AC50": "10 µM [rising, partial curve]"}, {"smiles": "CN1CCN(c2ncc3nc(-c4cn(C)c5ccccc45)c(=O)n(C[C@H]4CCCO4)c3n2)CC1", "AC50": "12.6 µM [rising, partial curve]"}, {"smiles": "CCn1c(=O)cc(OCC(=O)Nc2ccc3c(c2)OCCO3)c2ccccc21", "AC50": "3.98 µM [rising, full curve, poor fit]"}, {"smiles": "CCCCn1c(=N)n(CC(=O)C(C)(C)C)c2ccccc21", "AC50": "3.16 µM [falling, full curve]"}, {"smiles": "c1ccc(-c2noc(-c3ccncc3)n2)nc1", "AC50": "0.00316 µM [falling, full curve, poor fit]"}, {"smiles": "Cc1noc(C)c1-c1ccc2ncnc(NCCN3CCOCC3)c2c1", "AC50": "7.94 µM [rising, partial curve]"}, {"smiles": "CC(C)(C)SCCNC(=O)CN(c1ccc(F)cc1)S(C)(=O)=O", "AC50": "0.00398 µM [falling, full curve, poor fit]"}, {"smiles": "COc1ccccc1-c1ccc2ncnc(N3CCNCC3)c2c1", "AC50": "15.8 µM [rising, partial curve]"}, {"smiles": "O=C(CSc1nc(Nc2ccccc2)nc(N2CCOCC2)n1)N1CCc2ccccc21", "AC50": "3.16 µM [rising, full curve]"}, {"smiles": "CCN(CC)S(=O)(=O)c1cccc(C(=O)Nc2ccccc2C(=O)N2CCOCC2)c1", "AC50": "25.1 µM [rising, partial curve, poor fit]"}, {"smiles": "COc1cccc(Cn2c(=O)c(C)nc3cnc(Oc4ccccc4)nc32)c1", "AC50": "12.6 µM [rising, partial curve]"}, {"smiles": "O=C(Cc1cccs1)NCc1ccc2c(c1)OCO2", "AC50": "7.94 µM [rising, single point]"}, {"smiles": "Cc1ccc(Cn2c(CN(C)Cc3ccccc3)nc3c2c(=O)n(C)c(=O)n3C)cc1", "AC50": "12.6 µM [rising, partial curve]"}, {"smiles": "CCN(Cc1nc2ccccc2c(=O)[nH]1)Cc1nc2cc(OC)c(OC)cc2c(=O)[nH]1", "AC50": "2.51 µM [rising, partial curve]"}, {"smiles": "CSc1ccccc1N=CC1=C(O)CC(C)(C)CC1=O", "AC50": "7.94 µM [falling, partial curve]"}, {"smiles": "CC(C)[C@@H]1C(=O)N(S(C)(=O)=O)[C@H]2CCN(C(=O)/C=C\\CN3CCCCC3)[C@@H]12", "AC50": "31.6 µM [falling, single point]"}, {"smiles": "CN(C)C(=O)c1ccc(-c2nc(Nc3ccccc3)c3ccccc3n2)cc1", "AC50": "3.16 µM [rising, full curve]"}, {"smiles": "CCN(CC)S(=O)(=O)c1ccc2nnn(OCC(=O)Nc3cccc(C#N)c3)c2c1", "AC50": "12.6 µM [rising, single point]"}, {"smiles": "CCOc1ccc(OCC)c(NC(=O)C2CCCN(c3ncccn3)C2)c1", "note": "(stereo unspecified)", "AC50": "10 µM [rising, single point]"}, {"smiles": "CCN(C(=O)Cc1cccs1)c1nnc(-c2cc(OC)c(OC)c(OC)c2)s1", "AC50": "10 µM [rising, partial curve]"}, {"smiles": "CC1CN(C(=O)Nc2ccc3snnc3c2)c2ccccc21", "note": "(stereo unspecified)", "AC50": "25.1 µM [falling, single point]"}, {"smiles": "O=C(CSc1ccc2nnc(-c3ccncc3)n2n1)Nc1ccc2c(c1)OCO2", "AC50": "10 µM [rising, single point]"}, {"smiles": "O=C(CCN1CCN(CCO)CC1)Nc1ccc(F)c(F)c1", "AC50": "0.501 µM [rising, full curve, poor fit]"}, {"smiles": "COc1ccc(-c2nnc3sc(C4CCCCC4)nn23)cc1OC", "AC50": "1 µM [rising, full curve]"}, {"smiles": "C1=CC2C3C=CC(C3)C2C1", "note": "(stereo unspecified)", "AC50": "1 µM [falling, full curve, poor fit]"}, {"smiles": "CCOC(=O)c1c(NC(=O)COC(=O)Cn2cnc3ccccc32)sc(C)c1C", "AC50": "10 µM [rising, single point]"}, {"smiles": "CN(C)c1ncc2nc(-c3ccc(F)cc3)c(=O)n(C3CC3)c2n1", "AC50": "2.51 µM [rising, full curve]"}, {"smiles": "Cc1cc(C)c(C#N)c(SCC(=O)c2cccs2)n1", "AC50": "15.8 µM [rising, partial curve]"}, {"smiles": "Cc1ccc(Cn2c(=N)c(C(=O)NCc3ccco3)cc3c(=O)n4ccccc4nc32)cc1", "AC50": "10 µM [rising, partial curve]"}, {"smiles": "Cc1ccc(P(=O)(O)c2ccc(C)cc2)cc1", "AC50": "0.00316 µM [falling, full curve, poor fit]"}, {"smiles": "CCn1c(=O)n(CC(=O)Nc2cc(OC)ccc2OC)c(=O)c2ccccc21", "AC50": "10 µM [rising, partial curve]"}, {"smiles": "COC(=O)C1=C(C)NC2=C(C(=O)c3ccccc32)C1c1ccc(-c2ccc(C(=O)O)cc2)o1", "note": "(stereo unspecified)", "AC50": "0.398 µM [rising, full curve]"}, {"smiles": "COc1ccc(-n2c(=O)c(-c3ccccc3)nc3cnc(N4CCOCC4)nc32)cc1", "AC50": "2.51 µM [rising, full curve]"}, {"smiles": "CCOC(=O)C(C)Sc1nnc(CNC(=O)c2ccc(OC)cc2)n1C1CCCCC1", "note": "(stereo unspecified)", "AC50": "0.0316 µM [rising, full curve, poor fit]"}, {"smiles": "Cc1cccc(N2CCN(C(=O)c3cn(C)c(=O)c4c3c3ccccc3n4C)CC2)c1C", "AC50": "0.316 µM [falling, full curve, poor fit]"}, {"smiles": "O=C(NC1CCCCC1)c1cc2nc3c(c(C(F)(F)F)n2n1)CCCC3", "AC50": "12.6 µM [rising, partial curve]"}, {"smiles": "Cc1cc(C)c2cc(CN(CCO)Cc3nnnn3Cc3ccccc3)c(=O)[nH]c2c1", "AC50": "12.6 µM [falling, partial curve]"}, {"smiles": "COCCNC(=O)CCSCc1ccccc1F", "AC50": "12.6 µM [falling, single point]"}, {"smiles": "CCOC(=O)Nc1ccc2c(c1)N(C(=O)N(C)C)c1ccccc1CC2", "AC50": "1.26 µM [rising, partial curve]"}, {"smiles": "COc1cc(C(=O)OCC(=O)NC2CCCC2)cc(NC(=O)c2ccco2)c1OC", "AC50": "0.126 µM [falling, full curve, poor fit]"}, {"smiles": "O=C(CN1C(=O)NC2(CCCCCCC2)C1=O)N1CCOCC1", "AC50": "3.98 µM [falling, partial curve]"}, {"smiles": "COc1ccc(C2C(C(=O)c3sc(C)nc3C)=C(O)C(=O)N2CCCn2ccnc2)cc1", "note": "(stereo unspecified)", "AC50": "25.1 µM [rising, single point]"}, {"smiles": "N#Cc1nc(-c2ccc(F)cc2)oc1NCc1cccc2c1OCO2", "AC50": "12.6 µM [rising, partial curve]"}, {"smiles": "CCOC(=O)c1ccc(NS(=O)(=O)c2c(C)n(C)c(=O)n(C)c2=O)cc1", "AC50": "10 µM [rising, single point]"}, {"smiles": "CC(C)(C)c1ccc(O)c(CN(Cc2cc(C(C)(C)C)ccc2O)c2ccccc2)c1", "AC50": "5.01 µM [rising, single point]"}, {"smiles": "CS(=O)(=O)Nc1cccc(-c2nc(NCc3cccnc3)c3ccccc3n2)c1", "AC50": "3.16 µM [rising, full curve]"}, {"smiles": "c1ccc(Nc2ncnc3c2oc2ccccc23)cc1", "AC50": "10 µM [rising, single point]"}, {"smiles": "COCCNc1ncnc2ccc(-c3cccc(NS(C)(=O)=O)c3)cc12", "AC50": "0.158 µM [rising, full curve, poor fit]"}, {"smiles": "COc1cc(C(=O)Nc2cc(C)c(OCC(=O)N3CCOCC3)c(C)c2)cc(OC)c1OC", "AC50": "10 µM [rising, partial curve]"}, {"smiles": "CCn1c(=O)cc(SCC(=O)NCc2ccccn2)c2ccccc21", "AC50": "10 µM [rising, partial curve]"}, {"smiles": "CCS(=O)(=O)Nc1ccc(Cc2ccncc2)cc1", "AC50": "2.51 µM [falling, partial curve]"}, {"smiles": "Cc1ccc(C(=O)N2CCN(C(=O)CN3CCOCC3)C2)cc1", "AC50": "0.501 µM [rising, full curve]"}, {"smiles": "CCOC(=O)c1ccc(NS(=O)(=O)c2ccc3[nH]c(=O)[nH]c3c2)cc1", "AC50": "0.631 µM [rising, full curve, poor fit]"}]}]}
